The record followed here is PubChem BioAssay AID445 (National Center for Advancing Translational Sciences (NCATS), 2006).

Some of the results follow. Further columns of the screen follow, without active or inactive calls. The list favours compounds with an active or inconclusive main result. Potencies come from curve fits of mixed quality, noted in brackets.

A short description of the experiment: IkB Signaling. The settings on record: ABC-DLBCL IkBa-CBG/CBR dual luciferase ratio (green luciferase fused to IkBa over red control in OCI-Ly3 lymphoma cells), 4 h. A digest of the protocol: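 Luminescence ratio of IκBα-fused green versus native red beetle luciferase in OCI-Ly3 cells, 4 h post-doxycycline with compound; red signal alone, scaled from basal (0%) to zero light (-100%), flagged nonspecific or cytotoxic effects.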
Setting [1] is: measured here: control luc red channel unless noted.
The mark [2] stands for this setting: measured here: IkB-luc green channel.
Where [3] appears, read: measured here: control luc red channel.

As a reminder, the AC50 is the midpoint of the concentration-response curve, whichever way the signal moves. With `Nc1nc(COc2ccc3ccccc3c2)cs1`, under setting [1], the AC50 is 12.6 µM [falling, single point].

`Cc1ccc(CNC(=O)C2CCN(Cc3nc(-c4ccccc4C)oc3C)CC2)cc1`: the AC50 under setting [1] was 39.8 µM [falling, single point].

`Cc1cccc(NC(=O)CSc2nnc(CNC(=O)c3cccc(C)c3)n2-c2ccccc2)c1`: the concentration at half-maximal activity (AC50) under setting [1] was 3.98 µM [falling, partial curve].

For `COc1ccc(-c2noc(CN(C(=O)c3ccccc3Cl)C(C)C)n2)cc1`, the AC50 under setting [1] is 25.1 µM [falling, partial curve].

With `COc1ccc(OCc2nnc(SC(C)C(=O)Nc3nccs3)n2-c2ccccc2)cc1` (stereo not drawn), the AC50 under setting [1] was 15.8 µM [falling, partial curve].

Take `Cc1ccc2nc(CSc3nnc(NC(=O)CC(C)C)s3)cc(=O)n2c1`: under setting [1], the AC50 is 25.1 µM [falling, single point].

Consider `Cc1ccc(Cn2c(CN3CCC(C(=O)NCc4cccnc4)CC3)cc3ccccc32)cc1`, for which the AC50 under setting [1] is 12.6 µM [falling, partial curve].

In the case of `CCOc1ccc(CNC(=O)CCC(=O)N2Cc3ccccc3Oc3ncccc32)cc1`, under setting [1], the AC50 was 20 µM [falling, single point].

For `CCOc1ccccc1NC(=O)c1ccc2c(c1)CCN2S(C)(=O)=O`, the AC50 under setting [1] was 25.1 µM [falling, single point].

As for `COc1cc(C2c3c(-c4cc(C)ccc4O)n[nH]c3C(=O)N2Cc2cccnc2)cc(OC)c1OC` (stereo not drawn), the AC50 under setting [1] was 25.1 µM [rising, partial curve].

As to `Cc1ccc(-n2c(SCC(=O)N3CCc4ccccc43)nc3c([nH]c4ccccc43)c2=O)cc1`, the AC50 under setting [1] is 10 µM [rising, partial curve].

As to `CC(C)c1nnc(NC(=O)c2cccs2)s1`, the AC50 under setting [1] was 15.8 µM [falling, partial curve].

`O=C(Nc1ccc(OC(F)(F)F)cc1)c1cc2c(=O)n3ccccc3nc2s1`: the AC50 under setting [1] was 1.26 µM [rising, full curve].

`CCS(=O)(=O)N1CCc2cc(C(=O)Nc3cc([N+](=O)[O-])ccc3C)ccc21`: the AC50 under setting [1] was 20 µM [falling, single point].

As to `c1csc(-c2ncc3ccccn23)c1`, the AC50 under setting [1] was 25.1 µM [rising, single point] [measured here: IkB-luc green channel].

As to `COc1ccc(C(=O)Nc2ccc3nc(SCC(=O)N4CCCC4)sc3c2)cc1`, under setting [1], the AC50 was 5.01 µM [falling, partial curve].

`CCCC(=O)Nc1nnc(SCc2cc(=O)n3ccccc3n2)s1`: the AC50 under setting [1] is 0.0316 µM [falling, full curve, poor fit].

Take `COc1ccccc1CCNC(=O)Cn1ccc2cc(S(=O)(=O)N3CCCCC3)ccc21`: under setting [1], the AC50 was 20 µM [falling, single point].

`O=C(Nc1cccc2nsnc12)c1ccc2c(c1)OCCO2`: the AC50 under setting [1] was 25.1 µM [falling, partial curve].

As for `Cn1c(=O)c(=O)n(C)c2cc(S(=O)(=O)N3CCCC3C(=O)Nc3cccc(F)c3)ccc21` (stereo not drawn), the AC50 under setting [1] was 39.8 µM [falling, single point].

For `CCS(=O)(=O)n1nc(-c2ccco2)nc1NCc1ccc(C(C)C)cc1`, the AC50 under setting [1] is 25.1 µM [falling, partial curve].

As for `O=C(CSc1nc(-c2ccc(F)cc2)cs1)N1CCN(C(=O)c2ccco2)CC1`, the AC50 under setting [1] is 15.8 µM [falling, partial curve].

For the compound `CC(C)c1cc(C(=O)NCc2ccc(F)cc2)no1`, the AC50 under setting [1] is 0.251 µM [rising, partial curve].

Take `CCCCn1c(SCC(=O)Nc2cccc(OC)c2)nc2ccc(N3CCOCC3)cc2c1=O`: the AC50 under setting [1] is 6.31 µM [falling, partial curve].

With `Cc1cc(C)nc(SC2=CS(=O)(=O)c3ccccc32)n1`, the concentration at half-maximal activity (AC50) under setting [1] is 3.16 µM [rising, full curve] [measured here: IkB-luc green channel].

On to `CC(=O)Nc1ccc(NC(=O)C(NC(=O)C2CCC(C)CC2)C(C)C)cc1` (stereo not drawn), for which, under setting [1], the AC50 was 0.0251 µM [falling, full curve].

As to `O=C(Nc1nccs1)c1ccc(S(=O)(=O)NCC2CCCCC2)cc1`, the AC50 under setting [1] is 3.98 µM [falling, partial curve].

Consider `CCCc1cc(=O)n2[nH]c(SCc3ccccc3)nc2n1`, for which the AC50 under setting [1] was 20 µM [falling, partial curve].

As for `Cc1ccc(-n2cnc3cc(C(=O)NC4CCCCCC4)ccc32)c(C)c1`, the AC50 under setting [1] is 25.1 µM [falling, partial curve].

Turning to `COc1ccc(C)cc1NC(=O)C1CCC(CNS(=O)(=O)c2ccc3c(c2)CCCC(=O)N3)CC1` (stereo not drawn), the AC50 under setting [1] is 31.6 µM [falling, single point].

Regarding `CCc1ccc(Cn2nnc3c(=O)[nH]c(C4CCCN(C(=O)c5cccc(Cl)c5)C4)nc32)cc1` (stereo not drawn), under setting [1], the half-maximal activity concentration (AC50) was 2 µM [rising, partial curve, poor fit].

For the compound `C/C=C/COC(=O)c1[nH]c2c(c1C)C(=O)CC(c1ccco1)C2` (stereo not drawn), the AC50 reads like this: under setting [2], 0.631 µM [rising, full curve]; under setting [3], 0.126 µM [rising, full curve].

On to `CCOC(=O)C1CCCN(C(=O)C2CCN(Cc3nc(-c4ccc(Cl)cc4)oc3C)CC2)C1` (stereo not drawn), for which, under setting [1], the AC50 was 15.8 µM [falling, partial curve].

Take `COc1ccccc1NC(=O)N(Cc1ccccc1)c1ccccn1`: the AC50 under setting [1] is 31.6 µM [falling, partial curve].

Take `NC(=O)CSc1nc2cc3c(cc2c(=O)n1CCCCCC(=O)NCc1ccc2c(c1)OCO2)OCO3`: the AC50 under setting [1] is 39.8 µM [falling, single point].

On to `COc1ccc(OC)c(NC(=O)CSc2c3c(nc4cc(Cl)ccc24)CCCC3)c1`, for which the AC50 under setting [1] was 25.1 µM [falling, single point].

For the compound `O=C(Nc1ccccc1C(F)(F)F)C1(S(=O)(=O)c2ccc(Cl)cc2)CC1`, the AC50 under setting [1] was 0.794 µM [falling, full curve, poor fit].

As for `COc1ccc(-c2cn3c(n2)sc2cc(C(=O)NCC(C)c4ccccc4)ccc23)cc1` (stereo not drawn), under setting [1], the AC50 is 12.6 µM [falling, partial curve].

Consider `CCCCCCNC(=O)CCc1c(C)nc2nc(-c3cc(OC)cc(OC)c3)nn2c1C`, for which the AC50 under setting [1] was 25.1 µM [falling, single point].

As for `Cc1ccc(C(=O)c2cn(Cc3cc(C)ccc3C)c3nc(C)ccc3c2=O)cc1`, the AC50 under setting [1] was 31.6 µM [falling, partial curve].

For the compound `Cc1ccc(-c2noc(CN(C(=O)c3cccc(Br)c3)C(C)C)n2)cc1`, under setting [1], the AC50 is 25.1 µM [falling, partial curve].

Regarding `COc1ccc2[nH]cc(C(=O)CN3CCN(C/C=C/c4ccccc4)CC3)c2c1`, the AC50 under setting [1] is 20 µM [falling, partial curve].

As to `CC1Cn2c(C(=O)NCCc3ccc(Cl)cc3)cc3cccc(c32)S1` (stereo not drawn), under setting [1], the AC50 is 25.1 µM [falling, partial curve].

Turning to `Cc1c(C(=O)N2CCCC2)oc2c1-c1nn(CC(=O)NCc3ccccc3Br)cc1CC2`, under setting [1], the AC50 was 15.8 µM [falling, partial curve].

As for `COc1ccc(NC(=O)CCS(=O)(=O)c2nc(-c3ccc4c(c3)OCO4)cc(C(F)(F)F)n2)cc1`, the AC50 under setting [1] was 12.6 µM [falling, partial curve].

As for `COc1ccc(C)cc1NC(=O)CCc1c(C)nn(-c2ccc(N3CCCCC3)nn2)c1C`, the AC50 under setting [1] is 20 µM [falling, single point].

As to `CSc1ccc(C2CC(=O)Oc3c2c(=O)n(C)c2ccccc32)cc1` (stereo not drawn), the AC50 under setting [1] was 39.8 µM [falling, single point].

On to `CC1Cc2cc(-c3csc(NC(=O)Cc4cccs4)n3)ccc2N1S(C)(=O)=O` (stereo not drawn), for which the AC50 under setting [2] is 3.16 µM [falling, full curve] and the AC50 under setting [3] is 3.16 µM [falling, full curve].

With `N#Cc1nc(-c2ccc(OCc3ccccc3)cc2)oc1NCCCn1ccnc1`, under setting [1], the concentration at half-maximal activity (AC50) was 25.1 µM [falling, partial curve].

For `COc1ccc(-c2cc(C(=O)Oc3ccc(C)cc3)c3cc(C)ccc3n2)cc1`, the AC50 under setting [1] was 2 µM [falling, full curve].

As for `Cc1c(NC(=O)C2CCCN2S(=O)(=O)c2ccc(Cl)cc2)c(=O)n(-c2ccccc2)n1C` (stereo not drawn), the AC50 under setting [1] was 6.31 µM [falling, single point].

As to `Nc1ccc(O)c(-c2nc3ccccc3s2)c1`, the AC50 under setting [1] was 15.8 µM [falling, partial curve].

With `Cc1ccccc1CNC(=O)Cc1ccc(NC(=O)N2CCCCc3ccccc32)cc1`, the AC50 under setting [1] is 39.8 µM [falling, single point].

Regarding `CCOc1ccc(C(=O)c2cn(CC(=O)Nc3cccc(OC)c3)c3cc4c(cc3c2=O)OCCO4)cc1`, the AC50 under setting [1] is 15.8 µM [falling, partial curve].

Regarding `COc1ccccc1CNC(=O)C(C)n1ccc2cc(S(=O)(=O)N3CCCC3)ccc21` (stereo not drawn), the AC50 under setting [1] is 10 µM [falling, partial curve].

Regarding `COc1ccc(CNC(=O)c2ccc3nc(CCc4ccccc4)oc3c2)cc1`, the AC50 under setting [1] was 0.0316 µM [rising, full curve].

Consider `Cc1ccc(NC(=O)CSc2nc3c([nH]c4ccccc43)c(=O)n2-c2ccccc2)cc1Cl`, for which, under setting [1], the AC50 is 31.6 µM [falling, partial curve, poor fit].

Turning to `Cc1ccc(C2Nc3cc(C)c(C)cc3-n3c(-c4ccccc4)c4c(=O)n(C)c(=O)n(C)c4c32)o1` (stereo not drawn), the AC50 under setting [1] is 10 µM [falling, partial curve].

Consider `Cc1cccc(N2CCN(C(=O)C3CCN(C(=O)c4cc5sccc5n4C)CC3)CC2)c1C`, for which the AC50 under setting [1] was 31.6 µM [falling, single point].

For the compound `COc1cc(-c2nc(SCC(=O)Nc3ccc(C)cc3)c(-c3ccc(F)cc3)[nH]2)cc(OC)c1OC`, the AC50 under setting [1] was 3.98 µM [falling, full curve].

For the compound `COc1ccccc1N1CCN(C(=O)c2cnn(-c3cccc(Cl)c3)c2C2CCN(C(=O)OC(C)(C)C)CC2)CC1`, the AC50 under setting [1] is 15.8 µM [falling, partial curve].
